No constants are given. Whether binding was seen depends on the method and setting. Some binding calls cover weakened binding; strength is not graded here.
Columns and labels:
Assay in all cases: native MS; natively assembled complex released from 80S ribosomes by thrombin, purified to homogeneity by the 6xHis tag of ΔuL10 (Ni-NTA) and SEC (Superose 12), checked by SDS-PAGE, native PAGE and native MS of the intact complex in 200 mM ammonium acetate pH 7.5
[1] = target: T1, P2A, AP-treated (dephosphorylated) form (S. cerevisiae) (UniProt P05319)
T1 sequence: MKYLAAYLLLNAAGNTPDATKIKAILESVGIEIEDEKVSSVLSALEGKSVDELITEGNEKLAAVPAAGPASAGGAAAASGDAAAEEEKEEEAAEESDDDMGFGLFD

[2] = target: T2, ΔuL10 (amino acids 199–312), AP-treated (dephosphorylated) form (S. cerevisiae) (UniProt P05317)
T2 sequence: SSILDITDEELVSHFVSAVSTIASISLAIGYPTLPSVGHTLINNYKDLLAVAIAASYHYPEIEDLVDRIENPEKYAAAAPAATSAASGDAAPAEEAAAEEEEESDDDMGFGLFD

[3] = target: T3, P2B, AP-treated (dephosphorylated) form (S. cerevisiae) (UniProt P02400)
T3 sequence: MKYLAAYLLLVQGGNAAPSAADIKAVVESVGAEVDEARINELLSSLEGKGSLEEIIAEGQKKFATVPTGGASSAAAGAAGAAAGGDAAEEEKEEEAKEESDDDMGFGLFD

B1: P1B, AP-treated (dephosphorylated) form (protein, UniProt P10622 1-106)
chain: MSDSIISFAAFILADAGLEITSDNLLTITKAAGANVDNVWADVYAKALEGKDLKEILSGFHNAGPVAGAGAASGAAAAGGDAAAEEEKEEEAAEESDDDMGFGLFD
[1]
  binding: binds
[2]
  binding: binds

B2: P2A, AP-treated (dephosphorylated) form (protein, UniProt P05319 1-106)
chain: MKYLAAYLLLNAAGNTPDATKIKAILESVGIEIEDEKVSSVLSALEGKSVDELITEGNEKLAAVPAAGPASAGGAAAASGDAAAEEEKEEEAAEESDDDMGFGLFD
[2]
  binding: binds

B3: P1A, AP-treated (dephosphorylated) form (protein, UniProt P05318 1-106)
chain: MSTESALSYAALILADSEIEISSEKLLTLTNAANVPVENIWADIFAKALDGQNLKDLLVNFSAGAAAPAGVAGGVAGGEAGEAEAEKEEEEAKEESDDDMGFGLFD
[3]
  binding: binds
[2]
  binding: binds

B4: P2B, AP-treated (dephosphorylated) form (protein, UniProt P02400 1-110)
chain: MKYLAAYLLLVQGGNAAPSAADIKAVVESVGAEVDEARINELLSSLEGKGSLEEIIAEGQKKFATVPTGGASSAAAGAAGAAAGGDAAEEEKEEEAKEESDDDMGFGLFD
[2]
  binding: binds
